Data as given in the supplement of paper PMC4635364.
Structures can show the parent of a compound that is named as a salt. Some of the results follow. Repeats in this data set agree poorly, so a single value says little.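 ReNCell VM, a human fetal ventral-midbrain neural progenitor line, was differentiated without mitogens. Blinded raters scored images stained for doublecortin (early neurons) or tyrosine hydroxylase (dopaminergic neurons) against untreated wells (0 = no change). Scores were averaged across repeats and both raters, and compounds averaging 2 or more were selected as hits for retesting.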

What follows are molecules tested on ReNCell VM (assay: dopaminergic neuron differentiation score (TH+ cell fraction vs untreated, manual image score) (score (0 to 3)); higher = more TH+ dopaminergic neuron differentiation). Conditions: library: Prestwick; 2 uM; 4 weeks; BDNF 10 ng/ml + GDNF 10 ng/ml.
In the case of `C[N+]1(CCCCC[N+]2(C)CCCC2)CCCC1` [Pentolinium bitartrate], the “dopaminergic neuron differentiation score” value is reported as inactive: 0.
With `CC1CNc2c(cccc2S(=O)(=O)N[C@@H](CCCNC(=N)N)C(=O)N2CC[C@@H](C)C[C@@H]2C(=O)O)C1` (some centres undefined) [Argatroban] the “dopaminergic neuron differentiation score” value was inactive: 0.
In the case of `CCCCN1CCCCC1C(=O)Nc1c(C)cccc1C` (centres undefined) [Bupivacaine hydrochloride], the “dopaminergic neuron differentiation score” value is reported as inactive: 0.
In the case of `CC1(C)O[C@@H]2C[C@H]3[C@@H]4C[C@H](F)C5=CC(=O)CC[C@]5(C)[C@H]4[C@@H](O)C[C@]3(C)[C@]2(C(=O)CO)O1` [Flurandrenolide], the “dopaminergic neuron differentiation score” value is reported as inactive: 1.
`CCCC(=O)Nc1ncnc2c1ncn2[C@@H]1O[C@@H]2COP(=O)(O)O[C@H]2[C@H]1OC(=O)CCC` [Bucladesine sodium salt] was tested, and the “dopaminergic neuron differentiation score” value was inactive: 0.
In the case of `CCOC(=O)[C@H](CCc1ccccc1)N[C@@H](C)C(=O)N1CCC[C@H]1C(=O)O` [Enalapril maleate], the “dopaminergic neuron differentiation score” value is reported as inactive: 0.
For `COC(c1ccccc1)(c1ccccc1)[C@H](Oc1nc(C)cc(C)n1)C(=O)O` [Ambrisentan], the “dopaminergic neuron differentiation score” value was inactive: 0.
For `C/C(=C(\CCOP(=O)(O)O)SC(=O)c1ccccc1)N(C=O)Cc1cnc(C)nc1N` [Benfotiamine], the “dopaminergic neuron differentiation score” value was inactive: 0.
For `C[C@]12CC[C@@H]3c4ccc(O)cc4CC[C@H]3[C@@H]1C[C@@H](O)[C@@H]2O` [Estriol], the “dopaminergic neuron differentiation score” value was inactive: 0.

Same assay, conditions: library: Spectrum; 2 uM; 4 weeks; BDNF 10 ng/ml + GDNF 10 ng/ml
`COc1ccc(C(=O)c2ccc(O)cc2)c(O)c1O` was tested, and the “dopaminergic neuron differentiation score” value was inactive: 0.
For `O=C1NS(=O)(=O)c2ccccc21`, the “dopaminergic neuron differentiation score” value was inactive: 0.
For `OC[C@H]1O[C@@H](O[C@H]2[C@H](O)[C@@H](O)[C@@H](O)O[C@@H]2CO)[C@H](O)[C@@H](O)[C@@H]1O`, the “dopaminergic neuron differentiation score” value was inactive: 0.
In the case of `O=C(/C=C/c1ccc(O)cc1)c1ccc(O)cc1O`, the “dopaminergic neuron differentiation score” value is reported as inactive: 0.
For `N[C@@H](C(=O)N[C@@H]1C(=O)N2C(C(=O)O)=C(Cl)CS[C@H]12)c1ccccc1`, the “dopaminergic neuron differentiation score” value was inactive: 1.
For `CNC[C@H](O)c1cccc(O)c1`, the “dopaminergic neuron differentiation score” value was inactive: 0.
For `CC(=O)[C@H]1CC[C@H]2[C@@H]3C=CC4=CC(=O)CC[C@@]4(C)[C@@H]3CC[C@]12C`, the “dopaminergic neuron differentiation score” value was inactive: 0.
`CCCc1nc(C(C)(C)O)c(C(=O)OCc2oc(=O)oc2C)n1Cc1ccc(-c2ccccc2-c2nnn[nH]2)cc1` was tested, and the “dopaminergic neuron differentiation score” value was inactive: 0.
In the case of `C[C@H]1[C@H](OC(=O)CCC(=O)O)O[C@@H]2O[C@@]3(C)CC[C@H]4[C@H](C)CC[C@@H]1[C@@]24OO3`, the “dopaminergic neuron differentiation score” value is reported as inactive: 0.
For `O=C(/C=C/c1ccccc1)c1ccc(O)cc1O`, the “dopaminergic neuron differentiation score” value was inactive: 0.
With `CC1=CC(=O)c2ccccc2C1=O` the “dopaminergic neuron differentiation score” value was inactive: 0.
For `COc1cc(-c2ccc(/N=N/c3ccc4c(S(=O)(=O)O)cc(S(=O)(=O)O)c(N)c4c3O)c(OC)c2)ccc1/N=N/c1ccc2c(S(=O)(=O)O)cc(S(=O)(=O)O)c(N)c2c1O`, the “dopaminergic neuron differentiation score” value was inactive: 0.
In the case of `NS(=O)(=O)c1cc2c(cc1C(F)(F)F)NCNS2(=O)=O`, the “dopaminergic neuron differentiation score” value is reported as inactive: 0.
`O=C(OC[C@H]1O[C@@H](OC(=O)c2cc(O)c(O)c(OC(=O)c3cc(O)c(O)c(O)c3)c2)[C@H](OC(=O)c2cc(O)c(O)c(OC(=O)c3cc(O)c(O)c(O)c3)c2)[C@@H](OC(=O)c2cc(O)c(O)c(OC(=O)c3cc(O)c(O)c(O)c3)c2)[C@@H]1OC(=O)c1cc(O)c(O)c(OC(=O)c2cc(O)c(O)c(O)c2)c1)c1cc(O)c(O)c(OC(=O)c2cc(O)c(O)c(O)c2)c1` was tested, and the “dopaminergic neuron differentiation score” value was inactive: 0.

Same assay, conditions: library: Tocriscreen; 2 uM; 4 weeks; BDNF 10 ng/ml + GDNF 10 ng/ml
For `Cc1cccc(C#Cc2ccccc2)n1` [MPEP hydrochloride], the “dopaminergic neuron differentiation score” value was inactive: 0.
In the case of `N#C/C(=C\c1ccc(O)c(O)c1)C(=O)NCCCCc1ccccc1`, the “dopaminergic neuron differentiation score” value is reported as inactive: 1.
For `CC(C)C[C@H](NC(=O)N1CCCCCC1)C(=O)N[C@H](Cc1cn(C)c2ccccc12)C(=O)N[C@H](Cc1ccccn1)C(=O)O`, the “dopaminergic neuron differentiation score” value was inactive: 0.
For `C[C@@H](CN1CC(=O)NC(=O)C1)N1CC(=O)NC(=O)C1` [Dexrazoxane hydrochloride], the “dopaminergic neuron differentiation score” value was inactive: 0.
In the case of `O=C(O)C(=O)O.[NH-][C@@H]1CCCC[C@H]1[NH-].[Pt+2]` [Oxaliplatin], the “dopaminergic neuron differentiation score” value is reported as inactive: 0.
With `C=CCn1c(=O)n([C@@H]2O[C@H](CO)[C@@H](O)[C@H]2O)c2nc(N)[nH]c(=O)c21` the “dopaminergic neuron differentiation score” value was inactive: 0.
